Measured values published in US12122821B2, “Regulation of glucose metabolism using anti-CGRP antibodies” (H. LUNDBECK A/S, priority 2013, dated 2024).
For some assays here: At least one structure is not confirmed: it was looked up by name or label, or the drawing left a doubt. Some entries share one result that the patent states for a list of compounds.

How the values were obtained:
[1] = system: Zucker diabetic fatty (ZDF) rat; test: Plasma triglycerides, free fatty acids and cholesterol in ZDF rats (Example 3); format: in vivo; conditions: pioglitazone 10 mg/kg/day
Procedure: (§1) For the groups treated with AB14, the antibody was administered once weekly via the caudal vein (i.v., 5 mL/kg) on days 1, 8, 15, and 22 at two different doses 20 mg/kg/week (groups 3 and 7) or 60 mg/kg/week (groups 4 and 8). All other groups were treated once weekly with vehicle 1 (i.v., 5 mL/kg). The intravenous treatments were performed in the morning on day 1, 8, 15, and 22 while under isoflurane anaesthesia. The volume of administration was individually adapted according to the most recent body weight.
(§2) All other groups were treated daily with vehicle 2 (p.o., 5 mL/kg) for 28 days. The most recent body weight was used to calculate the average volume of administration in each group.
(§3) A fasting (6 hours on day 0 from 8:00 am to 02:00 pm, and overnight on day 12, 19 and 26 from ˜6:00 pm to ˜8:00 am) was performed before each blood collection. […]
(§4) Fasting blood glucose (glucometers) was measured on days 0, 12, 19, and 26. Fasting plasma insulin, peptide-C (ELISA method), free fatty acids, triglycerides, total cholesterol (colorimetric method), and HDL-cholesterol (phosphotungstate precipitation, colorimetric method) were measured on day 0, and prior to dosing on days 12, 19, and day 26. Non HDL-cholesterol was calculated as total cholesterol—HDL-cholesterol. Fructosamine was measured on days 0, 19 and 28. HbA1c (DCA 2000) was measured on days 0 and 28.

[2] = system: Zucker diabetic fatty (ZDF) rat; test: Body weight and food intake in ZDF rats (Example 3); format: in vivo; conditions: vs vehicle ZDF (pioglitazone 10 mg/kg/day p.o.)
Procedure: as §1, with “weight. […] All other groups were treated daily with vehicle 2 (p.o., 5 mL/kg) for 28 days. The most recent body weight was used to calculate the average volume of administration in each group. Body weight was measured twice a week during the 4 weeks of treatment. Food consumption was measured just before the screening procedure and then twice weekly over 24 h during the first three weeks of treatment. Food consumption was measured once weekly during the week of OGTT (week 4).” for “weight.”

[3] = system: Zucker diabetic fatty (ZDF) rat; test: Fasting blood glucose, plasma insulin, C-peptide and HOMA-IR in ZDF rats (Example 3); format: in vivo; conditions: from 12 days of treatment, pioglitazone 10 mg/kg/day, vs vehicle ZDF
Procedure: as §1, §2, §3, §4

[4] = system: Zucker diabetic fatty (ZDF) rat; test: Oral glucose tolerance test on day 26 in ZDF rats (Example 3); format: in vivo
Procedure: The oral glucose tolerance test (OGTT) was performed as follows. On day 25, rats were fasted at ˜6:00 pm and an oral glucose tolerance test was performed the day after (on day 26). At ˜8:00 am (T-60) a blood collection (110 μL, EDTA) was performed for biochemical parameters measurements. One hour after (˜09:00 am), an oral glucose bolus (1.5 g/kg) was administered (T0). Blood glucose was measured (glucometer or colorimetric method in case of high glycaemia) on T-60, T0, T15, T30, T60, T90, T120, and T180 minutes. Area under the curve (AUC) was calculated based on the blood glucose values measured at T0. Plasma insulin and C-peptide were measured (ELISA method) on T-60, T15 (·40 μL of blood, EDTA), and T30 minutes (·40 μL of blood, EDTA).

[5] = system: HFD rats; test: 2-step hyperinsulinemic-euglycemic clamp in HFD rats (Example 2); format: in vivo, rat; conditions: 5 mU/kg/min insulin, Ab14 (10, 30, 100 mg/kg) or metformin 200 mg/kg/day, vs HFD vehicle, not significant
Procedure: Six-week HFD fed rats were treated for 2 weeks with Ab14, and a 2-step hyperinsulinemic euglycemic clamp was performed to assess insulin sensitivity. A physiological dose of insulin was used during the first step and a pharmacological dose of insulin was used during the second step to assess the effects of […] insulin sensitivity, respectively, under these two conditions.
Body weight and food consumption were measured 3 times per week until 10 days of treatment. HOMA-IR was measured on day 10 and 15. A 2-step clamp (5 mU/kg/min and then 15 mU/kg/min insulin) was performed on day 15 or 16. Glucose Turnover (GTO) was assessed using ^3H-glucose tracer infusion during the clamp procedure.
On day 15 or 16, the 2-step hyperinsulinemic-euglycemic clamp was performed using ^3H-glucose as a tracer (except in the normal chow group), and 5 mU/kg/min insulin infusion from 02:00 pm (T0) to 04:00 pm (T+2 h), followed by 15 mU/kg/min insulin infusion from 04:00 pm to 05:30 pm (t+3.5 h). […] Blood glucose was measured from the tip of the tail using glucometers every 10 minutes. […]
The following parameters were assessed: Glucose infusion rate (in all groups); Whole body glucose utilization rate (except in the normal chow group); Hepatic glucose production rate (except in the normal chow group); Whole body glycogen and glycolytic rates (except in the normal chow group).

## CCc1ccc(CCOc2ccc(CC3SC(=O)NC3=O)cc2)nc1 (centres unmarked) [pioglitazone]
[1]; from the 12th day, vs vehicle
  plasma triglycerides levels: strongly decreased
[1]; metformin 200 mg/kg/day, vs vehicle ZDF
  plasma total cholesterol levels relative to day 0: tended to prevent the increase
[2]; 28 days of treatment
  body weight: significantly increased
[2]
  food intake: trend to higher food consumption
[3]
  overnight fasting blood glucose levels: significantly decreased
[4]; all time points, vs vehicle ZDF (pioglitazone 10 mg/kg/day)
  blood glucose levels during OGTT: significantly reduced
[4]; metformin 200 mg/kg/day, pioglitazone 10 mg/kg/day, vs vehicle
  plasma insulin and C-peptide levels 15 and 30 minutes after the glucose load: slightly increased

## CN(C)C(=N)N=C(N)N [metformin, reference compound]
[5]
  decrease of hepatic glucose production (HGP), first step: 11-20%
